The supplement of paper PMC6119338
Some of the results follow. Repeats are few or missing, and single values can be far off.

tested on: Plasmodium berghei sporozoites; assay: residual sporozoite gliding motility relative to DMSO control; higher = less inhibition of motility; details: 10 µM; incubation time 30 min

Residual sporozoite gliding motility, > 50%:
Cn1c(C(=O)c2cccc3ccccc23)nc2ccccc21
CC1=C(CC(=O)c2cccc([N+](=O)[O-])c2)C(=O)c2ccccc2C1=O
COc1ccc(C=C2SC(=N)N(c3ccccc3OC)C2=O)cc1
CCOc1ccc(/C=C/c2nc(=O)c3ccccc3o2)cc1
Cc1ccc2cc3c(N)c4c(C)ccc(C)c4nc3nc2c1
Cc1ccc(-c2cc(C(=O)Nc3ccc(S(=O)(=O)N4CCCCC4)cc3)[nH]n2)c(O)c1
CCOc1cccc2sc(N(Cc3cccnc3)C(=O)C3CCCCC3)nc12
CN1CCN(c2c3c(c(C#N)c4nc5ccccc5n24)CCC3)CC1
Cc1sc2ncnc(Sc3nc4ccccc4[nH]3)c2c1C
CCOc1ccc2c(c1)CN(Cc1ccc(Cl)cc1)CO2
COc1ccc(Br)cc1C1Nc2ccc3ccccc3c2C2=C1C(=O)CC(c1ccccc1)C2 (stereo unspecified)
O=[N+]([O-])c1ccc(C=NNc2nc3ccccc3[nH]2)cc1
O=C(Nc1ccc(-c2nc3cc4ccccc4cc3[nH]2)cc1)c1cccc(Br)c1
CCOc1cccc(C(=O)Nc2ccc(-c3nc4ccccc4[nH]3)cc2)c1
O=C(CSc1ccc2nnc(-c3cccc(F)c3)n2n1)Nc1ccc2c(c1)OCO2
CCc1ccc(Nc2cc(C)c3ccc(O)cc3n2)cc1
N=c1n(CCN2CCCCC2)c2ccccc2n1CC(=O)c1ccc(Cl)c(Cl)c1
O=C(Nc1ccsc1C(=O)NC1CCCCC1)c1ccc(F)cc1
OC(CNC1CCCCC1)Cn1c2ccccc2c2ccccc21 (stereo unspecified)
Oc1c(C(Nc2ccccn2)c2cccc(Oc3ccccc3)c2)ccc2cccnc12 (stereo unspecified)
CCN(CC)c1cc(C)c2cc(NC(=O)c3cccc(OC)c3)ccc2n1
CCOC(=O)c1cn(CC)c2cc(N3CCCCC3)c(F)cc2c1=O
COCCNC(=O)c1ccc(OC2CCN(Cc3ccc(F)c(F)c3)CC2)c(Cl)c1
FC(F)(F)c1cccc(Nc2nc(-c3ccccc3)nc3ncccc23)c1
CN(C)c1ccc(N=Cc2ccc(N3CCOCC3)cc2)cc1
COc1cccc(-c2nn(C)c3sc(C(=O)NCCN4CCN(c5ccccc5F)CC4)cc23)c1
CC(C)CCNCC(O)Cn1c2ccccc2c2ccccc21 (stereo unspecified)
CCn1c(SCC(=O)Nc2cc(C(F)(F)F)ccc2Cl)nc2ccccc2c1=O
Cc1ccc(-c2cc3c(SCC(=O)Nc4cc(C(F)(F)F)ccc4Cl)nccn3n2)cc1
O=C(NCc1ccco1)C1CCN(S(=O)(=O)c2ccc(Br)cc2)CC1
COc1ccc(CCn2c(=N)c(C(=O)NCc3cccnc3)cc3c(=O)n4cccc(C)c4nc32)cc1
CCn1nc(-c2ccc(C(=O)OC)cc2)nc2c(=O)n(C)c(=O)nc1-2
Cc1ccc(Nc2nc(NCCO)c3ccccc3n2)cc1C
COc1ccc(OC)c(C2C3=C(CC(C)(C)CC3=O)N(c3ccc(Cl)c(Cl)c3)C3=C2C(=O)CC(C)(C)C3)c1
CN1CCN(c2ccc(Nc3c4ccccc4nc4ccccc34)cc2)CC1
O=C(Nc1ccccc1O)c1ccc(-c2ccc(Cl)cc2Cl)o1

Structural class: the entries above containing a CF3 group
Residual sporozoite gliding motility, > 50%:
FC(F)(F)c1cccc(Nc2nc(-c3ccccc3)nc3ncccc23)c1
CCn1c(SCC(=O)Nc2cc(C(F)(F)F)ccc2Cl)nc2ccccc2c1=O
Cc1ccc(-c2cc3c(SCC(=O)Nc4cc(C(F)(F)F)ccc4Cl)nccn3n2)cc1
